Where a name gives a salt, the structure may show the parent alone. Screen size: about 5,300 compounds; about 130 (2.5%) showed an effect of 50% or more. The list shows a part of the results.

In the assay the test system is M. mycetomatis strain mm55. Conditions: primary screen, metabolic activity vs growth control; 96 h, 2 µM; inhibitor.
Turning to `CCC1(c2ncc[nH]2)Cc2ccccc2O1` (centres unmarked) [ONC0001573, ku14r], the “% viability” value amounted to 68.55%.
For the compound `Cc1nnc(C[C@@H]2C=C(c3ccc(Cl)cc3)c3ccccc3-n3c(C)nnc32)o1` [ONC0000996, betbay 002], the “% viability” value came out at 80.87%.
Regarding `CC1=C(/C=C/C(C)=C/C=C/C(C)=C\C(=O)O)C(C)(C)CCC1` [ONC0000582, isotretinon], the “% viability” value amounted to 176.9%.
With `CC/C(=C(/CC)c1ccc(O)cc1)c1ccc(O)cc1` [ONC0003197, diethylstilbestrol], the “% viability” value is 93.2%.
Under `Cc1cc(Nc2nc(N[C@@H](C)c3ccc(F)cc3)c(C#N)cc2F)n[nH]1` [ONC0005220, az 960] stands 143.3%.
In the case of `CC(/C=C/C(=O)NO)=C\[C@@H](C)C(=O)c1ccc(N(C)C)cc1` [ONC0002217, trichostatin a], the “% viability” value is given as 57.9%.
For `O=C1C=CC(=O)C2=C1C1c3ccccc3C2c2ccccc21` [ONC0002508, inca6], the “% viability” value came to 72.54%.
`O=C(NC1CCN(Cc2ccccc2)CC1)c1ccc(I)cc1` [ONC0003079, 4ibp]: the “% viability” value was 71.08%.
Turning to `Cn1cc(-c2cc(Oc3cc(F)c(NC(=O)C4(C(=O)Nc5ccccc5)CC4)cc3F)ccn2)cn1` [ONC0004293, ckitin1], the “% viability” value came to 61.52%.
As to `CCOC(=O)c1c(CSc2ccccc2)n(C)c2cc(Br)c(O)c(CN(C)C)c12` [ONC0000725, arbidol hydrochloride], the “% viability” value is 91.51%.
As for `CCN1CCN(Cc2ccc(-c3cc4c(N[C@H](C)c5ccccc5)ncnc4[nH]3)cc2)CC1` [ONC0000250, aee788], the “% viability” value worked out at 77.84%.
Consider `C=C(C)C1CC=C(CO)CC1` (centres unmarked) [ONC0003761, perillylalcohol], for which the “% viability” value is listed as 89.33%.
Under `Cc1nc(Nc2ncc(C(=O)Nc3c(C)cccc3Cl)s2)cc(N2CCN(CCO)CC2)n1` [ONC0004707, dasatinib] stands 111.5%; under `CCN(CCO)CCCC(C)Nc1ccnc2cc(Cl)ccc12` (centres unmarked) [ONC0002421, hydroxychloroquine sulfate], 65.71%; under `COc1cc(N2CCC(N3CCN(C)CC3)CC2)ccc1Nc1ncnc(Nc2ccccc2S(=O)(=O)C(C)C)n1` [ONC0000148, asp3026], 91.78%.
The result for `NC(=O)c1cn([C@@H]2O[C@H](CO)[C@@H](O)[C@H]2O)c2ncnc(N)c2c1=O` [ONC0002494, api1] reads 68.56%; that for `CON` [ONC0003661, methoxyamine], 87.65%; that for `O=C(OCC(COC(=O)c1cccnc1)(COC(=O)c1cccnc1)COC(=O)c1cccnc1)c1cccnc1` [ONC0003812, niceritrol], 67.71%.
On to `CC(=O)N[C@H]1[C@@H](OC(C)C)O[C@H](COC(C)=O)[C@@H](OC(C)=O)[C@@H]1OC(C)=O` [ONC0003039, c34], for which the “% viability” value came to 122%.
`Oc1cc2c(cc1O)[C@@H]1c3ccc(O)c(O)c3OC[C@]1(O)C2` [ONC0005264, hematoxylin hydroxybrazilin]: the “% viability” value is 118%.
Under `CC(C(=O)O)c1ccc2c(c1)CC(=O)c1ccccc1S2` (centres unmarked) [ONC0005237, zaltoprofen] stands 110.5%.
Regarding `CN(C)c1ccc(C(=C2C=CC(=[N+](C)C)C=C2)c2ccc(N(C)C)cc2)cc1` [ONC0000415, gentian violet], the “% viability” value is recorded as 35.99%.
For `CCn1cnc2c(Nc3cccc(Cl)c3)nc(N[C@@H]3CCCC[C@@H]3N)nc21` [ONC0001362, cgp74514], the “% viability” value was 81.23%.
In the case of `O=c1ccn([C@@H]2O[C@H](COP(=O)(O)OP(=O)(O)OP(=O)(O)O)[C@@H](O)[C@H]2O)c(=O)[nH]1` [ONC0002228, uridine triphosphate], the “% viability” value was 66.98%.
Turning to `Cc1nc(-c2ccc(OCC(C)C)c(C#N)c2)sc1C(=O)O` [ONC0003903, febuxostat], the “% viability” value was found to be 64.27%.
Under `Clc1ccc(N2CCN(Cc3c[nH]c4ncccc34)CC2)cc1` [ONC0001640, l745870] stands 61.2%; under `C[C@@H](O)[C@H]1C(=O)N2C(C(=O)[O-])=C(SC3Cn4cnc[n+]4C3)[C@H](C)[C@H]12` (some centres unmarked) [ONC0000906, biapenem], 70.93%.
Under `CN1CCN(c2ccc3ccccc3n2)CC1` [ONC0001376, nmethylquipazine] stands 74.77%; under `CN(C)CCn1cc(S(=O)(=O)c2cccc(F)c2)c2cccnc21` [ONC0002868, way 208466 dihydrochloride], 131.1%.
In the case of `CCCCc1ccc(O)cc1O` [ONC0003242, rucinol], the “% viability” value is recorded as 107.9%.
Turning to `Nc1sc2c(c1C(=O)c1ccc(Cl)cc1)CCCC2` [ONC0003840, t62], the “% viability” value is 57.88%.
As for `c1ccc2nc(C3=NCCN3)ccc2c1` [ONC0001460, bu224], the “% viability” value is 71.14%.
Consider `Cc1ccc2c(=O)c3cccc(CC(=O)O)c3oc2c1C` [ONC0004842, dmxaa vadimezan], for which the “% viability” value amounted to 122.8%.
As to `O=C(O)CCC/C=C\C[C@@H]1[C@@H](/C=C/[C@@H](O)COc2cccc(Cl)c2)[C@H](O)C[C@@H]1O` [ONC0003627, cloprostenol], the “% viability” value was 51.71%.
`N[C@@]1(C(=O)O)CS(=O)(=O)[C@H]2[C@H](C(=O)O)[C@H]21` [ONC0004427, ly2140023 ly404039]: the “% viability” value is 119.9%.
In the case of `NCCCNCCSP(=O)(O)O` [ONC0002855, amifostine], the “% viability” value is 103.3%.
As to `COc1cc(CC2NCCc3cc(O)c(O)cc32)cc(OC)c1OC` (centres unmarked) [ONC0002165, trimethoquinol], the “% viability” value is listed as 66.75%.
The result for `O=C(Nc1cccc2cccnc12)c1ccc(N2C(=O)[C@@H]3[C@H](C2=O)[C@@H]2C=C[C@H]3C2)cc1.O=C(Nc1cccc2cccnc12)c1ccc(N2C(=O)[C@@H]3[C@H](C2=O)[C@@H]2C=C[C@H]3C2)cc1` [ONC0001552, endoiwr1] reads 105.7%.
`CCOC(=O)NNc1nncc2ccccc12` [ONC0000677, todralazine hydrochloride]: the “% viability” value was 89.33%.
Turning to `COc1cc(/C=C/c2ccc(OC)cc2OC)cc(OC)c1` [ONC0001445, tms], the “% viability” value is recorded as 52.75%.
As to `CCCCN1CCCCC1C(=O)Nc1c(C)cccc1C` (centres unmarked) [ONC0002334, bupivacaine hydrochloride], the “% viability” value was determined as 105.3%.

Values taken from paper PMC12670160, “A drug-repurposing screen of FDA- and EMA-approved drugs identifies two NF-κB inhibitors active against eumycetoma” (Journal of Antimicrobial Chemotherapy, 2025).
